Paper PMC9731518 (Biomedical chromatography : BMC, 2022)
Like-named read-outs stand apart in the source and are kept apart here.

Tests used:
[1] = human plasma, n=4
clinical = settings: human, in vivo, po, 20 mg
[2] = DMSO, n=4
[3] = ref Yap, et al. 2020b, cited from earlier work
[4] = n=6
in vitro = settings: human

With `C[C@@H]1COCCN1c1cc(-c2ccnn2C)c2ccnc(-c3ccn[nH]3)c2n1` [elimusertib, Elimusertib] the “Stability (%)” value ([1]; 3 freeze-thaw cycles −80 °C, 40 ng/mL (QCL)) was 100.4%, the “Stability (%)” value ([1]; 3 freeze-thaw cycles −80 °C, 200 ng/mL (QCM)) was 101.1% and the “Stability (%)” value ([1]; 3 freeze-thaw cycles −80 °C, 4000 ng/mL (QCH)) was 100.1%. For the same compound, the “Stability (%)” value ([1]; 12 months at −80 °C, 40 ng/mL (QCL)) was 103.9%, the “Stability (%)” value ([1]; 12 months at −80 °C, 200 ng/mL (QCM)) was 100.6% and the “Stability (%)” value ([1]; 12 months at −80 °C, 4000 ng/mL (QCH)) was 92.9%. For the same compound, the “Stability (%)” value ([1]; 4 h ambient temp, 40 ng/mL (QCL)) was 105.2%, the “Stability (%)” value ([1]; 4 h ambient temp, 200 ng/mL (QCM)) was 102.0% and the “Stability (%)” value ([1]; 4 h ambient temp, 4000 ng/mL (QCH)) was 104.5%. It also gave an AUC(0-inf) (clinical) of 4740 ng·h/mL, a half-life (clinical) of 7.4 h and an AUC(0-t) (clinical; AUC0-6.5, one patient, 20 mg PO, non-compartmental) of 2370 ng·h/mL. The Stock solution stability ([2]; 12 months at −80 °C) was 91.8%, the Stock solution stability ([2]; 6 h at RT) was 100.8% and the “mean multiple-dose Cmax” value ([3]; 40 mg BID (MTD), n=2) was 1,840 ng/mL. The “multiple dose Cmax” value ([3]; 80 mg BID, highest investigated dose, n=1) was 3,255 ng/mL, the Cmax ([3]; elimusertib administered alone, same dose level (20 mg)) was 569 ng/mL and the “mean AUC0-12” value ([3]; same dose level (20 mg)) was 4,060 ng•h/mL. For the same compound, the “Stability (%)” value ([4]; 72 h extract reinjection vs fresh calibrators, 40 ng/mL (QCL)) was 93.6%, the “Stability (%)” value ([4]; 72 h extract reinjection vs fresh calibrators, 200 ng/mL (QCM)) was 91.4% and the “Stability (%)” value ([4]; 72 h extract reinjection vs fresh calibrators, 4000 ng/mL (QCH)) was 92.3%. The “Stability (%)” value ([4]; 72 h extract reinjection vs reinjected calibrators, 40 ng/mL (QCL)) was 96.3%, the “Stability (%)” value ([4]; 72 h extract reinjection vs reinjected calibrators, 200 ng/mL (QCM)) was 103.3% and the “Stability (%)” value ([4]; 72 h extract reinjection vs reinjected calibrators, 4000 ng/mL (QCH)) was 102.4%. The recovery at 12 months (in vitro) was 92.9 to 104%.
